Laboratory results: article PMC4235626
Results are given in words; binding and its absence hold for the method and conditions named. Binding seen in cells or lysates may run through a third protein. Some binding calls cover weakened binding; strength is not graded here.

Protein sequences, listed by entry. Tags and fused reporters are not part of them. Lines headed by an entry give the natural chain unless they say otherwise; changes in a name come on top. Chains listed by the source or under a name are the forms on record and can include a tag or linker. Residues count along the entry.
UniProt Q15554: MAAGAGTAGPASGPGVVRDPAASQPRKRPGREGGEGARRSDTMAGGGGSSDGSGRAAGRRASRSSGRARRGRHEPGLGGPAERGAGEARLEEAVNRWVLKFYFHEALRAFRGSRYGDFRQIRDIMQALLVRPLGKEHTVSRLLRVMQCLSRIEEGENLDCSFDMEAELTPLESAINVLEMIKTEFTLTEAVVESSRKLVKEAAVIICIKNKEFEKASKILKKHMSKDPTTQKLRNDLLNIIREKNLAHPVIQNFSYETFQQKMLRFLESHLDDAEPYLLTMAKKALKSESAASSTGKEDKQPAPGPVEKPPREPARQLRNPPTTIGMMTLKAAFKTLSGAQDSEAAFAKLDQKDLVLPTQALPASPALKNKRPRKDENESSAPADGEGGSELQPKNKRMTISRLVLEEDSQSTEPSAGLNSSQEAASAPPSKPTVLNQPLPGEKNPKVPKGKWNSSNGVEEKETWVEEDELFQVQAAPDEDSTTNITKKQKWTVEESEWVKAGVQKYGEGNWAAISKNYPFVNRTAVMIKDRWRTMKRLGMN
lamin A, endogenous (the lamin A band of lamin A/C) (human (endogenous in IMR90)) (P02545, residues 1-646): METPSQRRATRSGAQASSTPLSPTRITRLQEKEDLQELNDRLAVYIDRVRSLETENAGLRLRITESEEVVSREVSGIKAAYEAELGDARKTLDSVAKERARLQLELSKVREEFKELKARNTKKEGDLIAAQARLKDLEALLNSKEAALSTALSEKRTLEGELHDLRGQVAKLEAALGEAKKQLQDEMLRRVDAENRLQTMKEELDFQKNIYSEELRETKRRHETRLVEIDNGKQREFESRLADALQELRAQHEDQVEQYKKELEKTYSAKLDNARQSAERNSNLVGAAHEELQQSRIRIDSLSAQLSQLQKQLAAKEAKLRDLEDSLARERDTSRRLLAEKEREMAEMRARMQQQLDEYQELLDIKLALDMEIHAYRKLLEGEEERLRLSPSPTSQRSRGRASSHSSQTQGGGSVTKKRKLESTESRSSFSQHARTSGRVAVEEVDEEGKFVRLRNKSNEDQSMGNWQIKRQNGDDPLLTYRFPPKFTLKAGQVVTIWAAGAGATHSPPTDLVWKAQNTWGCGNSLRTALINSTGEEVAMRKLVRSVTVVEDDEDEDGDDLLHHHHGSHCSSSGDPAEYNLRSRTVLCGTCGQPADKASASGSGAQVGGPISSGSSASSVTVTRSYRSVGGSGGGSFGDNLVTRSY
lamin C, endogenous (the lamin C band of lamin A/C) (human (endogenous in IMR90)) (P02545-2, form named): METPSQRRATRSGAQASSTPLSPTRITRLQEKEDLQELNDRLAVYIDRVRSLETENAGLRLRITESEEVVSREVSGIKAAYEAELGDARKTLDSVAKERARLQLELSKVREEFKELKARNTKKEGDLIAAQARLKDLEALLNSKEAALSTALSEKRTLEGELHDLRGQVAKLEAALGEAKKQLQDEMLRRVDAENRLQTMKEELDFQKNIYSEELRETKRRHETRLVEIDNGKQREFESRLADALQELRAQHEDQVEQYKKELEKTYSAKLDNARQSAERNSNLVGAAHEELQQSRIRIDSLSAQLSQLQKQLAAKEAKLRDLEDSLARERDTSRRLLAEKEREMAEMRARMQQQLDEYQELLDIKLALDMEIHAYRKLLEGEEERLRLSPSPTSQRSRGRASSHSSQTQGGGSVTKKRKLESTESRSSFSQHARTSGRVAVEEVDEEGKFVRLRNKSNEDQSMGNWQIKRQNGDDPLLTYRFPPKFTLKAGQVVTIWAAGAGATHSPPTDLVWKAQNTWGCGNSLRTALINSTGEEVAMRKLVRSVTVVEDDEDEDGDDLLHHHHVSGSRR
UniProt P54274: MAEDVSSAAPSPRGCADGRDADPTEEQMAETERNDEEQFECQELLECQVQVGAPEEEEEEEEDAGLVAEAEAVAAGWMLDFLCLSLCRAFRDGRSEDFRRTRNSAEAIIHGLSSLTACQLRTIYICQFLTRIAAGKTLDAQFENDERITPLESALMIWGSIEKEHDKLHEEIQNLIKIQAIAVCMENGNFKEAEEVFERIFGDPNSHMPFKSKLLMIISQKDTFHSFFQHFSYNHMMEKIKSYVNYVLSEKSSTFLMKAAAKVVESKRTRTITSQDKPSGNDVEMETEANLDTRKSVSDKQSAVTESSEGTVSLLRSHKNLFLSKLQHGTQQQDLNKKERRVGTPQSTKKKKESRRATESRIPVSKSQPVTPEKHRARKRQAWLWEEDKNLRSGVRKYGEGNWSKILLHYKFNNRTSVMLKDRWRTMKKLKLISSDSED

Experiments:
[1] = biological target: telomere repeat-binding factor 2 (TRF2), endogenous (human (endogenous in IMR90)) (UniProt Q15554); test: co-IP; endogenous TRF2 precipitated from IMR90 lysate with rabbit anti-TRF2 and protein G Dynabeads; lysis in 1% Triton X-100, 50 mM Tris pH 7.4, 300 mM NaCl, 5 mM EDTA; 4 °C; blot for lamin A/C or GFP
[2] = biological target: lamin A, endogenous (the lamin A band of lamin A/C) (human (endogenous in IMR90)) (UniProt P02545); test: co-IP; endogenous lamin A/C precipitated from IMR90 lysate with goat anti-lamin A/C and protein G Dynabeads; lysis in 1% Triton X-100, 50 mM Tris pH 7.4, 300 mM NaCl, 5 mM EDTA; 4 °C; blot for TRF2 or GFP
[3] = biological target: lamin C, endogenous (the lamin C band of lamin A/C) (human (endogenous in IMR90)) (UniProt P02545); test: as above

Substance	binding [1]	binding [2]	binding [3]
lamin C, endogenous (the lamin C band of lamin A/C) (from UniProt P02545-2 1-572)	binds	–	–
wild-type GFP-TRF1 (from UniProt P54274 1-439)	–	no binding	no binding
